# Measurements published in the supplement of paper PMC11732987, “Enantioselective OTUD7B fragment discovery through chemoproteomics screening and high-throughput optimisation” (Communications Chemistry, 2025).
# Sequences of proteins named here, by UniProt entry; tags and fusion partners are left off. A change or cut given only in a name is not applied to a line headed by its entry. Residues count along the entry.
# UniProt Q3MHD2: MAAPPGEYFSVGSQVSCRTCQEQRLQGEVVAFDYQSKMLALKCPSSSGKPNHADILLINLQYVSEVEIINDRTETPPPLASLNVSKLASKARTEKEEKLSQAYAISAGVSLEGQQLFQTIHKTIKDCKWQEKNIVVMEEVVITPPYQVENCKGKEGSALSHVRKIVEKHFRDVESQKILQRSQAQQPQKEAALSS
# UniProt Q96GX5, 297-322: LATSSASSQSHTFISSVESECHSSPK
# UniProt O43318: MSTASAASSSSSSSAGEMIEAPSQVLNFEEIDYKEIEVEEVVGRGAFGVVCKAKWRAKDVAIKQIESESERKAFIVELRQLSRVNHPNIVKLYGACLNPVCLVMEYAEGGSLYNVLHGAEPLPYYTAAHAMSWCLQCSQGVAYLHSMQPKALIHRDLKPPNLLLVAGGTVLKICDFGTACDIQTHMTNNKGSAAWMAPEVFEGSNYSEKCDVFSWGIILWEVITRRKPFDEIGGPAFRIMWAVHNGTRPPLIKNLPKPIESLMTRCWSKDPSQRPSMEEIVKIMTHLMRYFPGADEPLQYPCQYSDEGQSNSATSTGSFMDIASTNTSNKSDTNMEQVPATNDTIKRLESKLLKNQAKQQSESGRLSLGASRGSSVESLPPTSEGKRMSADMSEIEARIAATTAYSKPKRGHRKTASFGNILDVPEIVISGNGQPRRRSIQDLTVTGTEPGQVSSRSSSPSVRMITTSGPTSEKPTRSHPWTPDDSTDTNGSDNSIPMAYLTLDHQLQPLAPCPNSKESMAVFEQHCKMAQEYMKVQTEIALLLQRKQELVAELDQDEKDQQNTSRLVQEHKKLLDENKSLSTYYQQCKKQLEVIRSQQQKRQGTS
# UniProt O60318: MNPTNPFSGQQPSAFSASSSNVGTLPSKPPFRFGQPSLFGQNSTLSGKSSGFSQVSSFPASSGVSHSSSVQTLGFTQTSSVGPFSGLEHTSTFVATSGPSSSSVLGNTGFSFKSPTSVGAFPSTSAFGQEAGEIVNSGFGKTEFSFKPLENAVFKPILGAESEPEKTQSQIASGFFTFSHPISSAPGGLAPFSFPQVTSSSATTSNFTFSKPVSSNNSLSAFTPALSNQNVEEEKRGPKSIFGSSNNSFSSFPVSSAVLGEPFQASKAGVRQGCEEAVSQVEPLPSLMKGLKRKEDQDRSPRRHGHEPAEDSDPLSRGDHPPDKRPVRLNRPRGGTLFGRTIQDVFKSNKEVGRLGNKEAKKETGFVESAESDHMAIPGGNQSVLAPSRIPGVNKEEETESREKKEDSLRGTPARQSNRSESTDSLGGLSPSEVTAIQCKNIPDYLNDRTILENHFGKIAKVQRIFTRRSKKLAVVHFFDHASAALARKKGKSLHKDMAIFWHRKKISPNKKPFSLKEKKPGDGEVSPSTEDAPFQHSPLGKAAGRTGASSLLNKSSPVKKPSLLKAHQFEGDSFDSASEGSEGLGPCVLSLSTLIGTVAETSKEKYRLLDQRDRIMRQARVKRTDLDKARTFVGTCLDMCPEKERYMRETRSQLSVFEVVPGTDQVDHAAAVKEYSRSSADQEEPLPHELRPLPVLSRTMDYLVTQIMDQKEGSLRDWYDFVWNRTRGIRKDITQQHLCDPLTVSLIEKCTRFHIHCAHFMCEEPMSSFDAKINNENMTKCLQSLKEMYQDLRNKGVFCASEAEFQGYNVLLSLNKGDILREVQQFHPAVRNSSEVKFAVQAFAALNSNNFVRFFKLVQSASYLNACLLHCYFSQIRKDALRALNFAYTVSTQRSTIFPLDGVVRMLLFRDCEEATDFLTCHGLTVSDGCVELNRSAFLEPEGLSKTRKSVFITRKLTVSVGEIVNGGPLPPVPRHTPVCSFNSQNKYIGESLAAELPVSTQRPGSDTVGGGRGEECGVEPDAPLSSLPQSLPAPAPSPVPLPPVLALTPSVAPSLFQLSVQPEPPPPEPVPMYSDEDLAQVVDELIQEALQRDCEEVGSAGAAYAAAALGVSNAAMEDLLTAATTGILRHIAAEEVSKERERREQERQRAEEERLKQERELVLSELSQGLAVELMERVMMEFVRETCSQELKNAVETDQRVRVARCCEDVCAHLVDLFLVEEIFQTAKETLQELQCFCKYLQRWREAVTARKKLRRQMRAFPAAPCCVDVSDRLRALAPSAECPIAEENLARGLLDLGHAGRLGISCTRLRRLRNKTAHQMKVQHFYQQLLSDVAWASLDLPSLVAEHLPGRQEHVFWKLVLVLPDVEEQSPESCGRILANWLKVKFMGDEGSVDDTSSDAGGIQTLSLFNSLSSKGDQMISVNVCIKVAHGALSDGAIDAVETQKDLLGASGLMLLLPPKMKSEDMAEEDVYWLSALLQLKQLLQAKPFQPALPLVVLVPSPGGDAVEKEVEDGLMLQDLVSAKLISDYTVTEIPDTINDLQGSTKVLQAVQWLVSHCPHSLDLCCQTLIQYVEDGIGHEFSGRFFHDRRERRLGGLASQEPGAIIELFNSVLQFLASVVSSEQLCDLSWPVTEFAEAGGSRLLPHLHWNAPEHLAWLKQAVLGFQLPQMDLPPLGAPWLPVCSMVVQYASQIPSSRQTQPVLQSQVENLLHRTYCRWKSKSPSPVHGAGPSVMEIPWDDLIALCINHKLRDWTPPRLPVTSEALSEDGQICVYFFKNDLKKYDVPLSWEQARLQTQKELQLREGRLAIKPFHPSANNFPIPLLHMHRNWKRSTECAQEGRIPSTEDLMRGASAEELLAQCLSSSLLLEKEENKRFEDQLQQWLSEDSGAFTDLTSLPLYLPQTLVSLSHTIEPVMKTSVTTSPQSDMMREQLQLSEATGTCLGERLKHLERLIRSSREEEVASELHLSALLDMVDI
# UniProt Q9NT99: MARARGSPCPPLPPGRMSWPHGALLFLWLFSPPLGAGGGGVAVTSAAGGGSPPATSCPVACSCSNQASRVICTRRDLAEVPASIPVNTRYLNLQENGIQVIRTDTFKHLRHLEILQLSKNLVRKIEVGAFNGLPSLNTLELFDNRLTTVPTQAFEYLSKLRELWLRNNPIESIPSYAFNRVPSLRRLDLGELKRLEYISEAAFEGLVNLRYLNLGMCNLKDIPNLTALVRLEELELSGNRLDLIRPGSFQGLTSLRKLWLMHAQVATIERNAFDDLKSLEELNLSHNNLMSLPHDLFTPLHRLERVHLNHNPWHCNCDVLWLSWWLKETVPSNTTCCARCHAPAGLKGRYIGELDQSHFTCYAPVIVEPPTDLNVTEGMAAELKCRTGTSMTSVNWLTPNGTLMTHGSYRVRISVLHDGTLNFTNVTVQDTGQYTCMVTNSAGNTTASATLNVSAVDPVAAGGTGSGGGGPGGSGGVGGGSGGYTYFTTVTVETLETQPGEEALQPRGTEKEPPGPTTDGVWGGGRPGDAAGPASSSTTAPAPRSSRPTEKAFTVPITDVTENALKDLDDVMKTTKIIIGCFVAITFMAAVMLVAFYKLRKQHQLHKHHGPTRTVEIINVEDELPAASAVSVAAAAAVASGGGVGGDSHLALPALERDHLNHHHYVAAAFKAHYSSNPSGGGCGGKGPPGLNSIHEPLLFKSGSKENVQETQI
# UniProt Q9Y6R4: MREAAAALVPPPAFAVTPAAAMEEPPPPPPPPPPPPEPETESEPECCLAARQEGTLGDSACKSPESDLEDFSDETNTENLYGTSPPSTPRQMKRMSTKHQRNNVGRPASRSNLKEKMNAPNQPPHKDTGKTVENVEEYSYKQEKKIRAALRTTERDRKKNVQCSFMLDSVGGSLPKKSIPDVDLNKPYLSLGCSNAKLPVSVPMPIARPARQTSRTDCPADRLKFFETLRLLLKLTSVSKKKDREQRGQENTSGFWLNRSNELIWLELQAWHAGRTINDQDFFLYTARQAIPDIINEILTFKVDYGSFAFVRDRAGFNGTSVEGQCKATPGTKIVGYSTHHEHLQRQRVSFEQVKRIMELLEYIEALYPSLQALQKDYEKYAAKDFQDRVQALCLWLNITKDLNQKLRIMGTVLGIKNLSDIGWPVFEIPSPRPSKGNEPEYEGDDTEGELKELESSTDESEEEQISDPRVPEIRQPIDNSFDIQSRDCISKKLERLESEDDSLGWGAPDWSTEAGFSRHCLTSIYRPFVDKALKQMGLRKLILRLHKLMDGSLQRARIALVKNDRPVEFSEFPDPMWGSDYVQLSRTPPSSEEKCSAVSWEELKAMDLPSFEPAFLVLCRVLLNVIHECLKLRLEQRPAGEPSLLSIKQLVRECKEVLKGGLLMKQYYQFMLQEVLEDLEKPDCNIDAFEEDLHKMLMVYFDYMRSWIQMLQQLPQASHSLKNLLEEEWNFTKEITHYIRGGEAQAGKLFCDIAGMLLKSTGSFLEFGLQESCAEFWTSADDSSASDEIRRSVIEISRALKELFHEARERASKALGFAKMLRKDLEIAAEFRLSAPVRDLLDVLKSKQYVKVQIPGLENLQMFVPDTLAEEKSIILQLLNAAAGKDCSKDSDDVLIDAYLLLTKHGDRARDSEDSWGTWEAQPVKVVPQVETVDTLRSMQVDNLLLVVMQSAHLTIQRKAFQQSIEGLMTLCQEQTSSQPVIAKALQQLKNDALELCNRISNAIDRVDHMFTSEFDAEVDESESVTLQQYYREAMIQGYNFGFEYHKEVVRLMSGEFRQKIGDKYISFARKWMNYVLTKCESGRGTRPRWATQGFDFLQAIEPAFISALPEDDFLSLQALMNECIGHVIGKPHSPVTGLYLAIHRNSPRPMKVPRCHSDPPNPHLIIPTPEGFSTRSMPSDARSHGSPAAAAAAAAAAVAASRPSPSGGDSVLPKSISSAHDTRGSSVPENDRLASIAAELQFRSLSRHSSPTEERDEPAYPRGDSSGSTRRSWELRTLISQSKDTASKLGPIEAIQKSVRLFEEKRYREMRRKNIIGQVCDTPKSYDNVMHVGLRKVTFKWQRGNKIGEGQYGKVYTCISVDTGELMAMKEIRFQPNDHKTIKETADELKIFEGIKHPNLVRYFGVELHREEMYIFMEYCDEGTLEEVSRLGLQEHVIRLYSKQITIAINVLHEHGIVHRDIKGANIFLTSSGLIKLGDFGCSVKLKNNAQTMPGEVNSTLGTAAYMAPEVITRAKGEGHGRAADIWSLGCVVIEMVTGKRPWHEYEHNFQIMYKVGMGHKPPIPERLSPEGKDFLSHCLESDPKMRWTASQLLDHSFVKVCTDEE
# UniProt Q9Y4Z0: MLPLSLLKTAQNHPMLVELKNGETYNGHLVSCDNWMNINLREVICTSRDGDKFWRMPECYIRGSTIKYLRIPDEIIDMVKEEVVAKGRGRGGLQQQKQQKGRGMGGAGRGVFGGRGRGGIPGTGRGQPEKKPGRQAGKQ
# UniProt Q9Y2E5: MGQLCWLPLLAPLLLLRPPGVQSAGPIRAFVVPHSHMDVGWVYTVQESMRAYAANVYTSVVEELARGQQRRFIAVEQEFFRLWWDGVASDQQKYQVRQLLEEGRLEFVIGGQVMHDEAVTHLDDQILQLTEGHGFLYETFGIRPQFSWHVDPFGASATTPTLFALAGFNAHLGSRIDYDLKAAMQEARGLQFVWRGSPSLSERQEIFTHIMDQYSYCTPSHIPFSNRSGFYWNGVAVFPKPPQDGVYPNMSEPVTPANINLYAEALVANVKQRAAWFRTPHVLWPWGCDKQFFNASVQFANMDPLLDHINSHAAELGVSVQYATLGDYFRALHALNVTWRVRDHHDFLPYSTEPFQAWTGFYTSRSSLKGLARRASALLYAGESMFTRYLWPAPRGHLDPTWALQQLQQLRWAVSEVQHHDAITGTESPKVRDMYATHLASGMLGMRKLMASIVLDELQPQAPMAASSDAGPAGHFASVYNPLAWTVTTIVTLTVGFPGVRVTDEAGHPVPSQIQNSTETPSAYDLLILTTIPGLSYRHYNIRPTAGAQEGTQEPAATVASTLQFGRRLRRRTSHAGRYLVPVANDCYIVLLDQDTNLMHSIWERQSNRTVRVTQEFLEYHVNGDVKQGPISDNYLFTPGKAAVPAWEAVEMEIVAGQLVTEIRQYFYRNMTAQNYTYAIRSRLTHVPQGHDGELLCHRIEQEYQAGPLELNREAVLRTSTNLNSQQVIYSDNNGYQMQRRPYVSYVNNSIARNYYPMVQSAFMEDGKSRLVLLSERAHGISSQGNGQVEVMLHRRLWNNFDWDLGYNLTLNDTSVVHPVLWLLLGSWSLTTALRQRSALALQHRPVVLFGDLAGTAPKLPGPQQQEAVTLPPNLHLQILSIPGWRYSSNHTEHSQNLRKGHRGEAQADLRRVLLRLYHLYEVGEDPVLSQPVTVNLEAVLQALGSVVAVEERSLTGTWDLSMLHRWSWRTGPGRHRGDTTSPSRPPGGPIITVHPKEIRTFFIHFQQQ
# UniProt Q15691: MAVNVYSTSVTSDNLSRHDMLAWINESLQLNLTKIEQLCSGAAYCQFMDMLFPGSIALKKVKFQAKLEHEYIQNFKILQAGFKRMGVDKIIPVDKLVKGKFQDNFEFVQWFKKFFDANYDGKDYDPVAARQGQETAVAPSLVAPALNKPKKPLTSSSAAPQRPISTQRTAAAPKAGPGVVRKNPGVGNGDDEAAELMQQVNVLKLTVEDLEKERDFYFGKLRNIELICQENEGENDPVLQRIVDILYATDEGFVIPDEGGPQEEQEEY
# The list shows a part of the results. The data scatter; read single values as rough.
# Key:
# [1] = compound: ClCC(=O)N[C@@H]1CCCc2ccccc12; assay: log2 mean competition ratio of IA-DTB cysteine labelling (DMSO/compound) (log2 ratio); higher = stronger cysteine engagement by compound; conditions: treatment time: 4 h, cell line lysate: HEK293T
# Procedure: (§1)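 IA-DTB competitive cysteine chemoproteomics in HEK293T RIPA lysate. Lysates were treated with compound 29 or 30 at 50 or 200 µM for 4 h, then IA-DTB (500 µM, 1 h), trypsin-digested, NeutrAvidin-enriched and analysed by diaPASEF. Competition ratio = intensity DMSO / intensity compound (n=4 treated, n=64 DMSO); binding: mean log2 CR ≥ 1 and p ≤ 0.05 plus QC filters. Target is the cysteine site.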
# [2] = compound: ClCC(=O)N[C@H]1CCCc2ccccc12; assay: as above; conditions: treatment time: 4 h, cell line lysate: HEK293T
# Procedure: as §1
Target,log2 mean competition ratio ([1]; 50 µM),log2 mean competition ratio ([1]; 200 µM),log2 mean competition ratio ([2]; 50 µM),log2 mean competition ratio ([2]; 200 µM)
MAU2 C252 (UniProt Q9Y6X3),0.409,-0.08,–,–
LRSAM1 C418 (UniProt Q6UWE0),-0.227,0.538,–,–
LRRC42 C301 (UniProt Q9Y546),-0.0836,-0.0144,–,–
LRPPRC C930,0.18,-0.245,–,–
MAD2L1 C106 (UniProt Q13257),-0.166,-0.0716,–,–
MAP3K20 C231 (UniProt Q9NYL2),0.00856,-0.362,–,–
MATK C53 (UniProt P42679),0.061,-0.189,–,–
LRRC59 C131 (UniProt Q96AG4),-0.286,0.0623,–,–
LSM12 C17 (UniProt Q3MHD2),0.428,0.399,–,–
MARK2 C166,0.0504,0.06,–,–
MARS1 C38,0.091,0.363,–,–
MACF1 C7344,-0.543,-0.592,–,–
MARK4 C49 (UniProt Q96L34),-0.0451,0.199,–,–
MASTL C317 (UniProt Q96GX5),-0.0394,0.295,–,–
MAP3K7 C588 (UniProt O43318),0.114,0.0953,–,–
MAGI1 C1065,0.359,0.136,–,–
MAP2K1 C341 (UniProt Q02750),0.017,0.453,–,–
MAP3K20 C571 (UniProt Q9NYL2),-0.191,0.172,–,–
MCM3AP C274 (UniProt O60318),-0.395,-0.139,–,–
MAP4K5 C505 (UniProt Q9Y4K4),-0.0487,-0.174,–,–
LRRC4B C683 (UniProt Q9NT99),0.0761,-0.0327,–,–
MCM9 C106 (UniProt Q9NXL9),-0.0561,-0.024,–,–
LRRC45 C385 (UniProt Q96CN5),0.191,-0.0519,–,–
LRRC8C C165,0.065,0.0723,–,–
LYN C381 (UniProt P07948),0.0159,0.309,–,–

# 19 neighbouring records out of the list so far:
Target,log2 mean competition ratio ([1]; 50 µM),log2 mean competition ratio ([1]; 200 µM),log2 mean competition ratio ([2]; 50 µM),log2 mean competition ratio ([2]; 200 µM)
MAP3K20 C231 (UniProt Q9NYL2),0.00856,-0.362,–,–
MATK C53 (UniProt P42679),0.061,-0.189,–,–
LRRC59 C131 (UniProt Q96AG4),-0.286,0.0623,–,–
LSM12 C17 (UniProt Q3MHD2),0.428,0.399,–,–
MARK2 C166,0.0504,0.06,–,–
MARS1 C38,0.091,0.363,–,–
MACF1 C7344,-0.543,-0.592,–,–
MARK4 C49 (UniProt Q96L34),-0.0451,0.199,–,–
MASTL C317 (UniProt Q96GX5),-0.0394,0.295,–,–
MAP3K7 C588 (UniProt O43318),0.114,0.0953,–,–
MAGI1 C1065,0.359,0.136,–,–
MAP2K1 C341 (UniProt Q02750),0.017,0.453,–,–
MAP3K20 C571 (UniProt Q9NYL2),-0.191,0.172,–,–
MCM3AP C274 (UniProt O60318),-0.395,-0.139,–,–
MAP4K5 C505 (UniProt Q9Y4K4),-0.0487,-0.174,–,–
LRRC4B C683 (UniProt Q9NT99),0.0761,-0.0327,–,–
MCM9 C106 (UniProt Q9NXL9),-0.0561,-0.024,–,–
LRRC45 C385 (UniProt Q96CN5),0.191,-0.0519,–,–
LRRC8C C165,0.065,0.0723,–,–

# (cont.)

Target,log2 mean competition ratio ([1]; 50 µM),log2 mean competition ratio ([1]; 200 µM),log2 mean competition ratio ([2]; 50 µM),log2 mean competition ratio ([2]; 200 µM)
MAP3K4 C218 (UniProt Q9Y6R4),0.131,0.218,–,–
MAD2L1BP C221 (UniProt Q15013),-0.046,0.201,–,–
LZTS2 C355 (UniProt Q9BRK4),0.0369,0.349,–,–
MACROD1 C116 (UniProt Q9BQ69),-0.0781,-0.0695,–,–
MASTL C455 (UniProt Q96GX5),0.127,0.112,–,–
MATR3 C806 (UniProt P43243),0.273,-0.0586,–,–
MARK3 C510 (UniProt P27448),-0.0888,0.0211,–,–
MBOAT2 C146 (UniProt Q6ZWT7),0.161,-0.0573,–,–
MAP2K2 C384 (UniProt P36507),-0.0626,0.074,–,–
MBIP C243 (UniProt Q9NS73),-0.12,0.108,–,–
MARS1 C333,-0.0179,-0.273,–,–
LTN1 C981 (UniProt O94822),0.141,0.069,–,–
MAPK3 C82,0.00733,0.0172,-0.178,-0.0444
LUZP1 C969 (UniProt Q86V48),0.439,0.238,–,–
MAP3K4 C998 (UniProt Q9Y6R4),-0.398,-0.0591,–,–
MCOLN3 C11 (UniProt Q8TDD5),-0.238,-0.269,-0.354,0.368
MAP3K7 C527 (UniProt O43318),0.0177,0.568,–,–
M6PR C32 (UniProt P20645),-0.0495,0.183,-0.0611,0.17
MCMBP C249 (UniProt Q9BTE3),0.0774,-0.304,-0.00808,-0.125
LTN1 C237 (UniProt O94822),0.296,-0.188,–,–
MAF C46,-0.0728,0.24,–,–
LRRC40 C23 (UniProt Q9H9A6),-0.0603,0.00373,-0.0442,0.0984
LRRFIP1 C14 (UniProt Q32MZ4),-0.149,-0.114,0.228,0.0389
LSM4 C45 (UniProt Q9Y4Z0),0.0185,0.0437,–,–
LRRFIP1 C750 (UniProt Q32MZ4),0.0939,0.069,–,–

Target,log2 mean competition ratio ([1]; 50 µM),log2 mean competition ratio ([1]; 200 µM),log2 mean competition ratio ([2]; 50 µM),log2 mean competition ratio ([2]; 200 µM)
MAP2K1 C277 (UniProt Q02750),0.187,0.143,–,–
MAP3K4 C1581 (UniProt Q9Y6R4),0.148,0.104,–,–
MCM6 C185 (UniProt Q14566),0.0559,0.205,-0.0238,0.213
MAP9 C239,-0.136,-0.229,–,–
MARK3 C688 (UniProt P27448),-0.308,-0.0816,–,–
MAN2B2 C288 (UniProt Q9Y2E5),-0.151,-0.211,–,–
MCM3AP C1285 (UniProt O60318),-0.127,0.0854,–,–
MACF1 C6646,-0.161,0.0397,–,–
LTBR C418 (UniProt P36941),0.0921,0.0164,–,–
LRRC1 C224,0.0874,-0.32,–,–
LRRC4B C340 (UniProt Q9NT99),0.187,-0.109,0.131,-0.0216
MAN2C1 C322 (UniProt Q9NTJ4),0.0873,-0.0388,–,0.0966
MCM3AP C1428 (UniProt O60318),0.157,0.3,–,-0.182
MCM6 C180 (UniProt Q14566),-0.0482,-0.0593,–,–
MCF2L C580,-0.136,0.264,–,–
MAVS C46 (UniProt Q7Z434),0.318,0.00714,0.587,-0.0793
MAPRE1 C228 (UniProt Q15691),-0.513,0.388,–,–
MAP2K6 C294 (UniProt P52564),-0.124,0.0465,–,–
MCMBP C325 (UniProt Q9BTE3),0.416,0.629,–,–
MAP7D1 C382 (UniProt Q3KQU3),-0.228,-0.163,0.00443,-0.31
MACF1 C5049,0.377,0.193,0.0177,0.0486
LYN C468 (UniProt P07948),-0.107,-0.115,–,–
MAP3K20 C242 (UniProt Q9NYL2),-0.222,-0.142,-0.317,-0.145
